{"source": "PubChem BioAssay AID602196 (INSERM, 2012)", "assay": "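Knock-downs that protect lung cancer cells from cisplatin or sensitise them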", "cells": "human A549 lung cancer cells", "reagent": "siRNA pair against human genes", "time to read-out": "48 h transfection before cisplatin; time from cisplatin to read-out not stated", "challenge": "cisplatin at a dose killing half of control-siRNA cells; exact dose and duration not given", "measurement": "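Shift in cisplatin death relative to control siRNA, from -50 (all cells die) to +50 (no cells die); siRNAs harmful on their own scored 0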", "scale": "two-siRNA summed score (-2 to +2): higher = both siRNAs protect from cisplatin killing; -2 means both sensitise; mean protection from cisplatin (shift in death): higher = protection from cisplatin killing", "rule for the call": "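Each siRNA scores 0 if harmful alone by LDH or WST-1, otherwise +1 if it reduces and -1 if it increases cisplatin killing; a gene is active when both siRNAs agree (sum +2 or -2)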", "calls": "active = both siRNAs shift cisplatin killing the same way; inactive = no consistent shift, or siRNA harmful alone", "note": "Shown is an unselected part of about 23,000 reagents tested. In the full data, 455 (2%) are marked active. 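Active includes both protection and sensitisation; some change values fall well beyond the stated -50 to +50 range.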 Unmarked entries are inactive. Not all columns of the deposit are shown. No sequences are given here. Not stated in the record: the amount of reagent."}
{"target":"OR2T8","two-siRNA summed score (-2 to +2)":1,"mean protection from cisplatin (shift in death) (%)":11.5}
{"target":"LOC389323","two-siRNA summed score (-2 to +2)":0,"mean protection from cisplatin (shift in death) (%)":1.3}
{"target":"WFDC8","two-siRNA summed score (-2 to +2)":0,"mean protection from cisplatin (shift in death) (%)":10.3}
{"target":"VWA1","two-siRNA summed score (-2 to +2)":0,"mean protection from cisplatin (shift in death) (%)":-0.6}
{"target":"ATP2A2","two-siRNA summed score (-2 to +2)":1,"mean protection from cisplatin (shift in death) (%)":3.8}
{"target":"NECAP1","two-siRNA summed score (-2 to +2)":0,"mean protection from cisplatin (shift in death) (%)":-0.3}
{"target":"ZNF396","two-siRNA summed score (-2 to +2)":0,"mean protection from cisplatin (shift in death) (%)":-1.8}
{"target":"ABCA9","two-siRNA summed score (-2 to +2)":"-2 (active)","mean protection from cisplatin (shift in death) (%)":-32.5}
{"target":"MRPS25","two-siRNA summed score (-2 to +2)":0,"mean protection from cisplatin (shift in death) (%)":2.5}
{"target":"ACTRT2","two-siRNA summed score (-2 to +2)":0,"mean protection from cisplatin (shift in death) (%)":3.8}
{"target":"PEX3","two-siRNA summed score (-2 to +2)":0,"mean protection from cisplatin (shift in death) (%)":2.9}
{"target":"RAP2A","two-siRNA summed score (-2 to +2)":1,"mean protection from cisplatin (shift in death) (%)":6.7}
{"target":"LOC400953","two-siRNA summed score (-2 to +2)":0,"mean protection from cisplatin (shift in death) (%)":7}

Targets listed so far whose target name begins with A or a (3):
{"target":"ATP2A2","two-siRNA summed score (-2 to +2)":1,"mean protection from cisplatin (shift in death) (%)":3.8}
{"target":"ABCA9","two-siRNA summed score (-2 to +2)":"-2 (active)","mean protection from cisplatin (shift in death) (%)":-32.5}
{"target":"ACTRT2","two-siRNA summed score (-2 to +2)":0,"mean protection from cisplatin (shift in death) (%)":3.8}

Additional results follow.
{"target":"LOC400963","two-siRNA summed score (-2 to +2)":0,"mean protection from cisplatin (shift in death) (%)":30.1}
{"target":"CLCC1","two-siRNA summed score (-2 to +2)":0,"mean protection from cisplatin (shift in death) (%)":-0.2}
{"target":"STX17","two-siRNA summed score (-2 to +2)":0,"mean protection from cisplatin (shift in death) (%)":-10.4}
{"target":"KIF15","two-siRNA summed score (-2 to +2)":0,"mean protection from cisplatin (shift in death) (%)":9.8}
{"target":"EIF4B","two-siRNA summed score (-2 to +2)":1,"mean protection from cisplatin (shift in death) (%)":2.6}
{"target":"TCEAL3","two-siRNA summed score (-2 to +2)":0,"mean protection from cisplatin (shift in death) (%)":8.4}
{"target":"LINC00905","two-siRNA summed score (-2 to +2)":0,"mean protection from cisplatin (shift in death) (%)":-5.2}
{"target":"MLST8","two-siRNA summed score (-2 to +2)":0,"mean protection from cisplatin (shift in death) (%)":2.4}
